Experiment: ^99mTc radiolabeling efficiency of lipophilic chelates incorporated into perfluorocarbon nanoparticles or as free lipid-chelate
From the text: Several lipophilic chelates were synthesized and evaluated for radiolabeling perfluorocarbon nanoparticles for comparison. Briefly, these lipid-chelates included 6-hydrazinonicotinic-phosphatidylethanolamine (HYNIC-PE), diethylenetriamene pentaacetate-caproyl-phosphatidylethanolamine (DTPA-cap-PE), Gly-Gly-Gly-caproyl-phosphatidyl-ethanolamine (TriGly-cap-PE), Gly-Gly-Gly-Asp-caproyl-phosphatidyl-ethanolamine (triGly-Asp-cap-PE), N2S2-phosphatidylethanolamine (N2S2-PE), and N2S2-NH2-phosphatidylethanolamine (N2S2-NH2-PE). Stannous tartrate reductions of ^99mTc with a tricineintermediate shuttle step were used to minimize the formation of ^99mTcO2 during metalation. ^99mTc was coupled to the bis-pyridyl-lysine through a tricarbonyl precursor as described below. […]
Sodium borohydride NaBH4 (0.53 M), sodium carbonate (0.14 M), and sodium tartrate (0.24 M) in 660 μl deionized water were admixed in a glass serum vial. […] After equilibration to atmospheric pressure, the reaction mixture was adjusted to pH 7 with a 1:3 mixture of 0.1 M phosphate buffer (pH 7.4): 1 M HCl and purity was determined by HPLC as described below. […] The nanoparticle radiolabeling yield was greater than 90% as determined by TLC developed with 0.1M sodium acetate pH 5.18:methanol:water (20:100:200), which achieved approximately 6 atoms of ^99mTc per nanoparticle.

Substance | Yield achieved, Free (^99mTc radiolabeling efficiency)
N2S2-NH2-phosphatidylethanolamine [N2S2-amino-PE] | 67%
N2S2-phosphatidylethanolamine [N2S2-PE] | 93%

From patent US20080241061A1, “METHODS OF IMAGING EMPLOYING CHELATING AGENTS” (priority 2006, published 2008)
